Measured data: PubChem BioAssay AID1224827 (NIAID, 2016)
Here is one part, drawn at random, of about 3,800 reagents. About 2,200 of them (57%) were called active. 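Active means a strong reporter change in either direction; calls are per siRNA, not per gene; qiagen siRNAs gave weaker effects.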 Entries without a mark were called inactive. Reagents against one gene are numbered here. Further read-outs or replicates are left out here.

- Assay: 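Identify regulators of the macrophage TNF-alpha response to bacterial LPS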 (follow-up of hits)
- System: RAW264.7 G9 mouse macrophage reporter clone
- Reagent: single siRNA against mouse genes, 100 nM siRNA
- Duration: siRNA for 2 days, then LPS about 16 h
- Treatment: bacterial lipopolysaccharide (LPS), 10 ng/ml, cells fixed after overnight (about 16 h) stimulation
- Measurement: 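Imaged nuclear TNF reporter intensity, background removed, scaled per plate and to non-targeting control wells, as z-scores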
- Direction: TNF reporter z-score, mean: higher = stronger Tnf promoter reporter signal
- Rule for the call: 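An siRNA is called active when its mean z-score over replicates is at least +2 or at most -2; control wells get no call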

Inhca (inhibitor of carbonic anhydrase) #1 gave TNF reporter z-score, mean -1.05. With knock-down of Inhca (inhibitor of carbonic anhydrase) #2, the record shows TNF reporter z-score, mean -3.12 (active). Knock-down of Inhca (inhibitor of carbonic anhydrase) #3 gave: TNF reporter z-score, mean -3.17 (active). Inhca (inhibitor of carbonic anhydrase) #4 showed TNF reporter z-score, mean 1.29. Inhca (inhibitor of carbonic anhydrase) #5 gave TNF reporter z-score, mean -0.00189. For Inhca (inhibitor of carbonic anhydrase) #6, the entry reads TNF reporter z-score, mean -1.25.

Silencing of Atg3 (autophagy related 3) #1 came out at: TNF reporter z-score, mean 0.118. Atg3 (autophagy related 3) #2 gave TNF reporter z-score, mean -1.04. With knock-down of Atg3 (autophagy related 3) #3 the results were TNF reporter z-score, mean -2.69 (active). With knock-down of Atg3 (autophagy related 3) #4, the record shows TNF reporter z-score, mean 3.15 (active). Knock-down of Atg3 (autophagy related 3) #5 gave: TNF reporter z-score, mean 1.64. Atg3 (autophagy related 3) #6 scored TNF reporter z-score, mean -2.03 (active).

Against Tsg101 (tumor susceptibility gene 101) #1, the values are TNF reporter z-score, mean 0.0203. After knock-down of Tsg101 (tumor susceptibility gene 101) #2 the results were TNF reporter z-score, mean -2.68 (active). With knock-down of Tsg101 (tumor susceptibility gene 101) #3 the results were TNF reporter z-score, mean -2.97 (active). For Tsg101 (tumor susceptibility gene 101) #4 the deposit lists TNF reporter z-score, mean 4.11 (active). Tsg101 (tumor susceptibility gene 101) #5 scored TNF reporter z-score, mean 2.97 (active). Depletion of Tsg101 (tumor susceptibility gene 101) #6 resulted in: TNF reporter z-score, mean 3.14 (active).

With knock-down of Zkscan14 (zinc finger with KRAB and SCAN domains 14) #1, the screen gave TNF reporter z-score, mean -1.34. Zkscan14 (zinc finger with KRAB and SCAN domains 14) #2 scored TNF reporter z-score, mean -2.41 (active). Zkscan14 (zinc finger with KRAB and SCAN domains 14) #3 showed TNF reporter z-score, mean -4.17 (active). Zkscan14 (zinc finger with KRAB and SCAN domains 14) #4 gave TNF reporter z-score, mean 6.98 (active). Against Zkscan14 (zinc finger with KRAB and SCAN domains 14) #5 the deposit lists TNF reporter z-score, mean 2.25 (active). For Zkscan14 (zinc finger with KRAB and SCAN domains 14) #6 the deposit lists TNF reporter z-score, mean 0.602.

Single entries from the entries so far:
For “TNF reporter z-score, mean”, Inhca (inhibitor of carbonic anhydrase) #1 reads -1.05
Entry of Zkscan14 (zinc finger with KRAB and SCAN domains 14) #1 in “TNF reporter z-score, mean”: -1.34
Result for Zkscan14 (zinc finger with KRAB and SCAN domains 14) #2 under “TNF reporter z-score, mean”: -2.41 (active)
For “TNF reporter z-score, mean”, Zkscan14 (zinc finger with KRAB and SCAN domains 14) #3 shows -4.17 (active)
Result for Tsg101 (tumor susceptibility gene 101) #1 in “TNF reporter z-score, mean”: 0.0203
Value of Atg3 (autophagy related 3) #5 in “TNF reporter z-score, mean”: 1.64

Further reagents follow.
Against Trim9 (tripartite motif-containing 9) #1, the values are TNF reporter z-score, mean 6.84 (active). Depletion of Trim9 (tripartite motif-containing 9) #2 gave: TNF reporter z-score, mean -3.25 (active). With knock-down of Trim9 (tripartite motif-containing 9) #3, the screen gave TNF reporter z-score, mean -5.6 (active). Depletion of Trim9 (tripartite motif-containing 9) #4 gave: TNF reporter z-score, mean 1.45. Trim9 (tripartite motif-containing 9) #5 showed TNF reporter z-score, mean -1.51. For Trim9 (tripartite motif-containing 9) #6, the values are TNF reporter z-score, mean -2.8 (active).

Slc38a9 #1 showed TNF reporter z-score, mean -0.82. For Slc38a9 #2 the deposit lists TNF reporter z-score, mean -1.51. Against Slc38a9 #3 the deposit lists TNF reporter z-score, mean -3.99 (active). For Ube2e2 (ubiquitin-conjugating enzyme E2E 2) #1, the values are TNF reporter z-score, mean 3.98 (active). Silencing of Ube2e2 (ubiquitin-conjugating enzyme E2E 2) #2 resulted in: TNF reporter z-score, mean -2.45 (active). Ube2e2 (ubiquitin-conjugating enzyme E2E 2) #3 gave TNF reporter z-score, mean -4.43 (active).

Silencing of Ube2e2 (ubiquitin-conjugating enzyme E2E 2) #4 resulted in: TNF reporter z-score, mean 1.42. Depletion of Ube2e2 (ubiquitin-conjugating enzyme E2E 2) #5 came out at: TNF reporter z-score, mean 0.838. Ube2e2 (ubiquitin-conjugating enzyme E2E 2) #6 showed TNF reporter z-score, mean 0.225. After knock-down of Ankmy2 (ankyrin repeat and MYND domain containing 2) #1 the results were TNF reporter z-score, mean 1.38. Ankmy2 (ankyrin repeat and MYND domain containing 2) #2 scored TNF reporter z-score, mean -4.29 (active). Against Ankmy2 (ankyrin repeat and MYND domain containing 2) #3 the deposit lists TNF reporter z-score, mean -5.08 (active).

For Ankmy2 (ankyrin repeat and MYND domain containing 2) #4, the entry reads TNF reporter z-score, mean 4.36 (active). With knock-down of Ankmy2 (ankyrin repeat and MYND domain containing 2) #5, the screen gave TNF reporter z-score, mean 2.19 (active). Ankmy2 (ankyrin repeat and MYND domain containing 2) #6 gave TNF reporter z-score, mean -3.06 (active).
